Reference: publication PMC4231742
The exact form of at least one protein or probe is not confirmed. Results from cells or extracts need not show a direct contact.

The chains behind the UniProt entries cited, without tags or fusion partners.
UniProt P05412, whole entry: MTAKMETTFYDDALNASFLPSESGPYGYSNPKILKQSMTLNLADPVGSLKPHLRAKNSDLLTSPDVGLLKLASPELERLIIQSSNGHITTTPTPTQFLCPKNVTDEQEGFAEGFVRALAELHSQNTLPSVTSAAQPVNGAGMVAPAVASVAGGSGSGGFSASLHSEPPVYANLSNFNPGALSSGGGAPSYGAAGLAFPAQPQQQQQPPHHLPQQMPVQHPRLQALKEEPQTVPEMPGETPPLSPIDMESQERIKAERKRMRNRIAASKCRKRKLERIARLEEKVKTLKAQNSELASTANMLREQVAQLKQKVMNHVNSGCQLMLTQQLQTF
UniProt P01100, whole entry: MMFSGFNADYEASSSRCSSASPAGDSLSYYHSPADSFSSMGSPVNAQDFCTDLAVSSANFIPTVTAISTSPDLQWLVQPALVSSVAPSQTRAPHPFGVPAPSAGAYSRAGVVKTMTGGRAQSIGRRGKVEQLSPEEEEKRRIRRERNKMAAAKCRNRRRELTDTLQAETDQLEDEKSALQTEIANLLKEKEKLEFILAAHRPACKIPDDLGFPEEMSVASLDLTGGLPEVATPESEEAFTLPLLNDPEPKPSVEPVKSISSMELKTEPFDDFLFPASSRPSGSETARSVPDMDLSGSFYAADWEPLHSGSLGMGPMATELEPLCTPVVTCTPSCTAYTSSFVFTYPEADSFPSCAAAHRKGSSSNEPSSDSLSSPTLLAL

Key:
[1] = molecular target: c-Jun (AP-1) (UniProt P05412); assay: EMSA antibody supershift; conditions: TPA-treated HepG2 nuclear extract; LightShift Chemiluminescent EMSA kit; 3'-biotin probes with nuclear extract of TPA-treated HepG2; pH and temperature not stated; protein in an extract; label: 3' biotin
[2] = molecular target: c-Fos (AP-1) (UniProt P01100); assay: EMSA antibody supershift; conditions: TPA-treated HepG2 nuclear extract; LightShift Chemiluminescent EMSA kit; 3'-biotin probes with nuclear extract of TPA-treated HepG2; pH and temperature not stated; protein in an extract; label: 3' biotin

Sequence | binding result [1] | binding result [2]
TCCCACTGACTCATTGGAAGAGCTGTGTGACTCAGTGTAT (double strand) [Site A] | binds | binds
TGTATGTGTGTCACATTTGAAGTCACCAGTT (double strand) [Site B] | binds | binds
